# Experimental data: patent US10894040B2, “S1P modulating agents” (BIOGEN MA INC., priority 2011, dated 2021)
# Chains of the proteins cited; added tags and fusions are not shown. Lines headed by an entry give the natural chain unless they say otherwise; changes in a name come on top.
# UniProt Q9H228: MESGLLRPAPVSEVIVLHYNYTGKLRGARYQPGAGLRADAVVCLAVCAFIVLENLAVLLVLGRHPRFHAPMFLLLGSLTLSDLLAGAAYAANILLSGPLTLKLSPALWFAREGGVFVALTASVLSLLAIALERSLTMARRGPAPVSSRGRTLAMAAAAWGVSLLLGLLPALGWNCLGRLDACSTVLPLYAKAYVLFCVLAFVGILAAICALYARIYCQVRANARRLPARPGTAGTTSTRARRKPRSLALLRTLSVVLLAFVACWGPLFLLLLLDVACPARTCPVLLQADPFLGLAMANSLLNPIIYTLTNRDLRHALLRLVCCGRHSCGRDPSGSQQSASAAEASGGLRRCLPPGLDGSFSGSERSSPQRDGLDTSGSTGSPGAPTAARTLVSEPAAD
# UniProt P21453, whole entry: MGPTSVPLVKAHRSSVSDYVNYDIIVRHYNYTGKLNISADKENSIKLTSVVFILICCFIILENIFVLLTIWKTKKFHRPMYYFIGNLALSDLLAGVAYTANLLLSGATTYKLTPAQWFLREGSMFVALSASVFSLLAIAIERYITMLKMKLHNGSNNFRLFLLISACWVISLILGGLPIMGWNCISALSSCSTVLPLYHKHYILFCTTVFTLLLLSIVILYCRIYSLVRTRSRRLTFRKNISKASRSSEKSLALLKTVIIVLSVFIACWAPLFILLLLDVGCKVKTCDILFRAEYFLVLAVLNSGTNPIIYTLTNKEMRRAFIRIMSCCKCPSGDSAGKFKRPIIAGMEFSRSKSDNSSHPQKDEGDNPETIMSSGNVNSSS
# Some results were stated once for a whole list of compounds, not compound by compound. Some compounds share one range, which may span the group rather than tell each member.
# Legend:
# Type in all cases: cell-based
# S1P5 = S1P5 (Homo sapiens, UniProt Q9H228); test: S1P receptor activity assay, calcium flux, antagonist format; conditions: EC80 of reference agonist, range bounds printed with their own units (nM, μM)
# S1P4 = target: T1, S1P4 (Homo sapiens, UniProt O95977); test: as above; conditions: EC80 of reference agonist, range bounds printed with their own units (nM, μM)
# T1 sequence (O95977 1-384): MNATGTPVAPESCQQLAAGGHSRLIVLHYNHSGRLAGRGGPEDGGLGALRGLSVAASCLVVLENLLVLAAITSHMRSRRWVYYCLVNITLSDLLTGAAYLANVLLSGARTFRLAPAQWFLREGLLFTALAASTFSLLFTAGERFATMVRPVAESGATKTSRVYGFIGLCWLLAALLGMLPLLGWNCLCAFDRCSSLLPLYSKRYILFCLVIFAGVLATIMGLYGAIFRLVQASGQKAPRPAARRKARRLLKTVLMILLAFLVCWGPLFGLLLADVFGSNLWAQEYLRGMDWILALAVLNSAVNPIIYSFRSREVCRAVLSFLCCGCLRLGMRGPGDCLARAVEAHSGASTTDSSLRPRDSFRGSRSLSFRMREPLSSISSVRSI
# S1P1 = S1P1 (Homo sapiens, UniProt P21453); test: S1P receptor activity assay, calcium flux, agonist format; conditions: range bounds printed with their own units (nM, μM)
SMILES,IC50 (S1P5),"S1P4 antagonist activity, IC50 values (S1P4)",EC50 (S1P1)
"CCCCC1CCC(Oc2ccc3cc(CN4CCC(C(=O)O)CC4)ccc3c2)CC1 (mixture of isomers) [Example 32, 1-((6-(4-Butylcyclohexyloxy)naphthalen-2-yl)methyl)piperidine-4-carboxylic acid]",100 to 5000 nM,10 to 10000 nM,50 to 10000 nM
"CCCC1CCC(Oc2ccc3cc(CN4CCC(C(=O)O)CC4)ccc3c2)CC1 (mixture of isomers) [Example 106, 1-((6-((4-propylcyclohexyl)oxy)naphthalen-2-yl)methyl)piperidine-4-carboxylic acid]",100 to 5000 nM,10 to 10000 nM,50 to 10000 nM
"O=C(O)C1CCN(Cc2ccc3cc(OC4CCC5(CCCC5)CC4)ccc3c2)CC1 [Example 34, 1-((6-(Spiro[4.5]decan-8-yloxy)naphthalen-2-yl)methyl)piperidine-4-carboxylic acid]",100 to 5000 nM,10 to 10000 nM,50 to 10000 nM
"CC(C)(C)[C@H]1CC[C@H](Oc2ccc3nc(CN4CCC(C(=O)O)CC4)ccc3c2)CC1 [Example 42, 1-((6-(trans-4-tert-Butylcyclohexyloxy)quinolin-2-yl)methyl)piperidine-4-carboxylic acid]",100 to 5000 nM,10 to 10000 nM,50 to 10000 nM
"CC1CN(Cc2ccc3cc(O[C@H]4CC[C@H](C(C)(C)C)CC4)ccc3c2)CCC1C(=O)O (stereo partly drawn) [Example 100, 1-((6-((trans-4-(tert-butyl)cyclohexyl)oxy)naphthalen-2-yl)methyl)-3-methylpiperidine-4-carboxylic acid]",–,10 to 10000 nM,50 to 10000 nM
"CCC(C)(C)[C@H]1CC[C@H](Oc2ccc3nc(CN4CCC(C(=O)O)CC4)ccc3c2)CC1 [Example 131, 1-((6-((trans-4-(tert-pentyl)cyclohexyl)oxy)quinolin-2-yl)methyl)piperidine-4-carboxylic acid]",100 to 5000 nM,10 to 10000 nM,50 to 10000 nM
"O=C(O)C1CCN(Cc2ccc3cc(OC4CCC5(CCCCC5)CC4)ccc3n2)CC1 [Example 139, 1-((6-(spiro[5.5]undecan-3-yloxy)quinolin-2-yl)methyl)piperidine-4-carboxylic acid]",100 to 5000 nM,10 to 10000 nM,50 to 10000 nM
"O=C(O)C1CCN(Cc2ccc3cc(OC4CCC5(CCCC5)CC4)ccc3n2)CC1 [Example 145, 1-((6-(spiro[4.5]decan-8-yloxy)quinolin-2-yl)methyl)piperidine-4-carboxylic acid]",100 to 5000 nM,10 to 10000 nM,50 to 10000 nM
"CC(C)COC[C@H]1CC[C@H](Oc2ccc3cc(CN4CCC(C(=O)O)CC4)ccc3c2)CC1 [Example 171, 1-((6-((trans-4-(isobutoxymethyl)cyclohexyl)oxy)naphthalen-2-yl)methyl)piperidine-4-carboxylic acid]",100 to 5000 nM,10 to 10000 nM,50 to 10000 nM
"O=C(O)C1CCN(Cc2ccc3cc(O[C@H]4CC[C@H](c5ccccc5)CC4)ccc3n2)CC1 [Example 177, 1-((6-((trans-4-phenylcyclohexyl)oxy)quinolin-2-yl)methyl)piperidine-4-carboxylic acid]",100 to 5000 nM,10 to 10000 nM,50 to 10000 nM
"CC(C)OC[C@H]1CC[C@H](Oc2ccc3cc(CN4CCC(C(=O)O)CC4)ccc3c2)CC1 [Example 179, 1-((6-((trans-4-(isopropoxymethyl)cyclohexyl)oxy)naphthalen-2-yl)methyl)piperidine-4-carboxylic acid]",100 to 5000 nM,10 to 10000 nM,50 to 10000 nM
"CC(C)(C)[C@H]1CC[C@H](Oc2ccc3cc(CN4CCCC(CC(=O)O)C4)ccc3c2)CC1 (stereo partly drawn) [Example 183, 2-(1-((6-((trans-4-(tert-butyl)cyclohexyl)oxy)naphthalen-2-yl)methyl)piperidin-3-yl)acetic acid]",100 to 5000 nM,10 to 10000 nM,50 to 10000 nM
"CC(C)(C)[C@H]1CC[C@H](Oc2ccc3nc(CN4CCCC(C(=O)O)C4)ccc3c2)CC1 (stereo partly drawn) [Example 187, 1-((6-((trans-4-(tert-butyl)cyclohexyl)oxy)quinolin-2-yl)methyl)piperidine-3-carboxylic acid]",–,10 to 10000 nM,50 to 10000 nM
"CC(C)(C)[C@H]1CC[C@H](Oc2ccc3cc(CN4CCC(C(=O)O)(C(=O)O)CC4)ccc3c2)CC1 [Example 204, 1-((6-((trans-4-(tert-butyl)cyclohexyl)oxy)naphthalen-2-yl)methyl)piperidine-4,4-dicarboxylic acid]",100 to 5000 nM,10 to 10000 nM,50 to 10000 nM
